# Screen size: about 330,000 compounds; about 20 (0.006%) were called active. Inconclusive results, whose numbers are uncertain, are shown with a selection of clear calls. The call rests on the fitted dose curve; in most records, active means well fitted inhibition curve with a large enough effect; inconclusive means small, poorly fitted or top-dose-only effect, or effect the other way; inactive means flat fitted curve, though single readings scatter. A potency beside an inconclusive call is a rough fit, not a confirmed value.
# The chains behind the UniProt entries cited, without tags or fusion partners. Where a name states a change or a piece, a line headed by the entry shows the natural chain unless it says otherwise.
# UniProt O00167: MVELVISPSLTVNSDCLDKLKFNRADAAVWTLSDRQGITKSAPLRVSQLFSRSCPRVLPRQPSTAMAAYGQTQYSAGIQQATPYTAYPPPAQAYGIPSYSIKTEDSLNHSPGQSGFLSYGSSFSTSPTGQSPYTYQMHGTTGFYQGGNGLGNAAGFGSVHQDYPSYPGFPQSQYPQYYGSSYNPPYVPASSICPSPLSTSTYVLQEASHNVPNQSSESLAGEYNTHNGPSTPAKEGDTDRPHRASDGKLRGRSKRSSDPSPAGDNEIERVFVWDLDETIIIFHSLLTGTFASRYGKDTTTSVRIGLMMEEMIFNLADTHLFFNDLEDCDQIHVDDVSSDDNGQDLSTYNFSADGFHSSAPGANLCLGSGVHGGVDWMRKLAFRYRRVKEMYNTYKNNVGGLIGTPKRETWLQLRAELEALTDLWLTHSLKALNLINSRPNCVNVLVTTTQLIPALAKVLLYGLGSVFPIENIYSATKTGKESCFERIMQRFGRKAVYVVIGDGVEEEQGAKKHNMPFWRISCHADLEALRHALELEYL
# Target: Protein phosphatase EYA2 (Homo sapiens) (UniProt O00167)
# Experiment: qHTS Assay for Inhibitors of the Phosphatase Activity of Eya2
# Settings: recombinant Eya2, OMFP fluorescence dephosphorylation (OMFP is methylfluorescein phosphate); series mostly up to 76.9 µM
# Method in brief: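 Eya2 (0.2 uM) preincubated 10 min at ambient with compound, then OMFP substrate added at 50 uM; 10 min reaction in 50 mM HEPES pH 7.5, 50 mM NaCl, 5 uM MgCl2, 0.05% BSA, 1 mM DTT. Fluorescence read at Ex 485/Em 525 nm.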
# Potency means the concentration at half of the fitted maximal effect.
row,SMILES,Potency
1,CCOCCn1c(CN2CCCCC2C)nc2c1c(=O)n(C)c(=O)n2C (stereo not given),"inconclusive: 17.8 µM [inhibitor, single point]"
2,c1ccc(-c2cc(-c3ccncc3)nc3ccc4ccccc4c23)cc1,inactive
4,CC1(C)Cc2c(ccc3ccccc23)C2=C(C(=O)N3CCCC3)C(=O)C(=O)N21,inactive
5,O=C(Cn1cnc([N+](=O)[O-])n1)N/N=C/c1ccccc1O,inactive
6,O=C(c1cc(Cl)c(=O)n(Cc2ccc(Cl)cc2)c1)N1CCOCC1,"inconclusive: 79.4 µM [inhibitor, partial curve, poor fit]"
7,CCN1/C(=C/C=C/c2sc3ccccc3[n+]2CC)Sc2ccccc21,"inconclusive: 70.8 µM [inhibitor, single point]"
8,COc1ccccc1N1CCN(C(=O)CN2C(=O)c3cccc4cccc(c34)C2=O)CC1,"inconclusive: 112 µM [inhibitor, single point]"
9,CC1=NN(C(=O)c2ccco2)C(O)(c2ccccc2)C1 (stereo not given),"inconclusive: 20 µM [inhibitor, single point]"
10,CC(C)(C)C(=O)Cn1nnc(-c2ccc(C(F)(F)F)cc2)n1,"inconclusive: 79.4 µM [inhibitor, single point]"
11,Cc1nc(N/N=C/c2cccc(F)c2)cc(N2CCOCC2)n1,inactive
12,O=C(NC1CCCC1)C(c1ccc(F)cc1)N(C(=O)c1csnn1)c1ccccc1 (stereo not given),"inconclusive: 200 µM [inhibitor, partial curve, poor fit]"
13,Clc1ccc(C2=Nn3c(nnc3-c3cc(-c4ccccc4)n[nH]3)SC2)cc1,inactive
14,CC(CCc1ccccc1)NC(=O)c1cccc([N+](=O)[O-])c1 (stereo not given),inactive
15,Cc1cc(C(N)=O)nn1-c1c(Cl)cc(Cl)cc1Cl,"inconclusive: 20 µM [inhibitor, partial curve]"
16,C/C(=N\NC(=O)c1c(Br)c(C)nn1C)c1cccc(NC(=O)C2CCC2)c1,"inconclusive: 25.1 µM [inhibitor, single point]"
17,Nc1nc2c(s1)COc1ccccc1-2,inactive
18,FC(F)(F)c1cc(-c2cccs2)nc2ncnn12,inactive
19,COc1ccc(N2C(=O)CC(Sc3n[nH]c(-c4cccc(C)c4)n3)C2=O)cc1 (stereo not given),inactive
20,COC(=O)c1sc(-c2ccc(Cl)cc2)cc1NC(=O)c1ccccc1C(=O)O,"inconclusive: 22.4 µM [inhibitor, single point]"
21,O=C(C1=C(O)C(=O)N(c2nccs2)C1c1ccccc1)c1cc2ccccc2o1 (stereo not given),"inconclusive: 20 µM [activator, partial curve, poor fit]"
22,COC(=O)c1ccc(Oc2nc(N(C)C)nc(N3CCOCC3)n2)cc1,"inconclusive: 17.8 µM [inhibitor, single point]"
23,CCOC(=O)C1(Cc2cccc(OC)c2)CCCN(S(=O)(=O)N(C)C)C1 (stereo not given),"inconclusive: 20 µM [inhibitor, single point]"

row,SMILES,Potency
1,Cc1ccc(C(=O)O[C@H](C(=O)O)[C@@H](OC(=O)c2ccc(C)cc2)C(=O)O)cc1 (tested in a mixture with another compound),inactive
2,CSc1ccccc1NC(=S)Nc1ccc(S(N)(=O)=O)cc1,inactive
3,CCOc1ccc(-n2c(-c3ccco3)nc3c(cnn3-c3ccc(C)cc3)c2=O)cc1,"inconclusive: 562 µM [inhibitor, single point]"
4,CSc1cccc(NC(=O)Nc2nc3c(C)cccc3s2)c1,"inconclusive: 79.4 µM [inhibitor, single point]"
5,CCCCOC(=O)c1cc(=O)[nH]c(=O)[nH]1,"inconclusive: 79.4 µM [inhibitor, partial curve, poor fit]"
6,COC(=O)c1ccc(CN2CCC(CO)(Cc3ccccc3Cl)CC2)cc1,inactive
7,CCN(CC)c1ccc(/C=C/C(=O)c2ccc(Br)cc2)cc1,"inconclusive: 25.1 µM [activator, partial curve]"
8,COCCn1c(C)cc(/C=C2/NC(=O)N(Cc3ccc(C)cc3)C2=O)c1C,"inconclusive: 28200 µM [inhibitor, partial curve, poor fit]"
9,Cc1ccsc1C(=O)OCC(=O)N1CCN(C(=O)c2ccco2)CC1,inactive
10,CC(=O)Nc1ccc(S(=O)(=O)Nc2nc3ccccc3nc2Nc2cccc(O)c2)cc1,inactive
11,CCCCNC(=O)CN1CCN(Cc2ccc3cc(OC)ccc3c2)CC1,"inconclusive: 56.2 µM [inhibitor, partial curve, poor fit]"
12,Cc1ccc(-n2c(O)c(C=Nc3cc(C)on3)c3ccccc3c2=O)c(C)c1,inactive
13,CC(C(=O)N(C)C1CCS(=O)(=O)C1)N1C(=O)/C(=C/c2cccs2)SC1=S (stereo not given),"inconclusive: 79.4 µM [inhibitor, single point]"
14,Cc1ccc(S(=O)(=O)N(Cc2cc3ccccc3[nH]c2=O)CC2CCCO2)cc1 (stereo not given),"inconclusive: 15.8 µM [inhibitor, single point]"
15,Cc1cc2c(c(=O)o1)C(CCC1CCCCC1)C(C#N)=C(N)O2 (stereo not given),"inconclusive: 79.4 µM [inhibitor, partial curve, poor fit]"
16,O=C(O)CSc1cc(NS(=O)(=O)c2ccc(Cl)cc2)c2ccccc2c1O,inactive
17,COc1ccccc1C(=O)NNC(=S)Nc1ccccc1,"inconclusive: 251 µM [inhibitor, single point]"
18,CCN1c2ccccc2NC2N=C(OC)C(c3ccccc3)C21 (stereo not given),inactive
19,CC(=O)c1cccc(NC(=O)COC(=O)CC2CC3CCC2C3)c1 (stereo not given),"inconclusive: 31.6 µM [inhibitor, partial curve]"
20,Cc1ccccc1OCC1Cn2c(nc3c2c(=O)[nH]c(=O)n3C)O1 (stereo not given),"inconclusive: 158 µM [inhibitor, single point]"
21,O=c1/c(=C\c2cc([N+](=O)[O-])cc([N+](=O)[O-])c2O)sc2nc3ccccc3n12,inactive
22,CNCc1ccccc1Sc1ccc(OC)c(OC)c1,"inconclusive: 56.2 µM [inhibitor, partial curve]"

# Structures above with bromine:
row,SMILES,Potency
16,C/C(=N\NC(=O)c1c(Br)c(C)nn1C)c1cccc(NC(=O)C2CCC2)c1,"inconclusive: 25.1 µM [inhibitor, single point]"
7,CCN(CC)c1ccc(/C=C/C(=O)c2ccc(Br)cc2)cc1,"inconclusive: 25.1 µM [activator, partial curve]"

# Source: PubChem BioAssay AID488837 (National Center for Advancing Translational Sciences (NCATS), 2010)
